Results are given in words; binding and its absence hold for the method and conditions named. Binding seen in cells or lysates may run through a third protein.
Molecular target: Cystic Fibrosis Trans membrane Conductance Regulator (human (endogenous in LNCaP)) (UniProt P13569)
Assay: proximity ligation; Olink PLA kit in LNCaP cells deprived of androgen (DMSO) or with 2.5 nM R1881; rabbit anti-LMTK2 with mouse anti-AR; rabbit anti-BAX with mouse anti-CFTR as negative control; signals per nucleus counted with Image-J

Protein sequences, listed by entry. Tags and fused reporters are not part of them.
UniProt P13569: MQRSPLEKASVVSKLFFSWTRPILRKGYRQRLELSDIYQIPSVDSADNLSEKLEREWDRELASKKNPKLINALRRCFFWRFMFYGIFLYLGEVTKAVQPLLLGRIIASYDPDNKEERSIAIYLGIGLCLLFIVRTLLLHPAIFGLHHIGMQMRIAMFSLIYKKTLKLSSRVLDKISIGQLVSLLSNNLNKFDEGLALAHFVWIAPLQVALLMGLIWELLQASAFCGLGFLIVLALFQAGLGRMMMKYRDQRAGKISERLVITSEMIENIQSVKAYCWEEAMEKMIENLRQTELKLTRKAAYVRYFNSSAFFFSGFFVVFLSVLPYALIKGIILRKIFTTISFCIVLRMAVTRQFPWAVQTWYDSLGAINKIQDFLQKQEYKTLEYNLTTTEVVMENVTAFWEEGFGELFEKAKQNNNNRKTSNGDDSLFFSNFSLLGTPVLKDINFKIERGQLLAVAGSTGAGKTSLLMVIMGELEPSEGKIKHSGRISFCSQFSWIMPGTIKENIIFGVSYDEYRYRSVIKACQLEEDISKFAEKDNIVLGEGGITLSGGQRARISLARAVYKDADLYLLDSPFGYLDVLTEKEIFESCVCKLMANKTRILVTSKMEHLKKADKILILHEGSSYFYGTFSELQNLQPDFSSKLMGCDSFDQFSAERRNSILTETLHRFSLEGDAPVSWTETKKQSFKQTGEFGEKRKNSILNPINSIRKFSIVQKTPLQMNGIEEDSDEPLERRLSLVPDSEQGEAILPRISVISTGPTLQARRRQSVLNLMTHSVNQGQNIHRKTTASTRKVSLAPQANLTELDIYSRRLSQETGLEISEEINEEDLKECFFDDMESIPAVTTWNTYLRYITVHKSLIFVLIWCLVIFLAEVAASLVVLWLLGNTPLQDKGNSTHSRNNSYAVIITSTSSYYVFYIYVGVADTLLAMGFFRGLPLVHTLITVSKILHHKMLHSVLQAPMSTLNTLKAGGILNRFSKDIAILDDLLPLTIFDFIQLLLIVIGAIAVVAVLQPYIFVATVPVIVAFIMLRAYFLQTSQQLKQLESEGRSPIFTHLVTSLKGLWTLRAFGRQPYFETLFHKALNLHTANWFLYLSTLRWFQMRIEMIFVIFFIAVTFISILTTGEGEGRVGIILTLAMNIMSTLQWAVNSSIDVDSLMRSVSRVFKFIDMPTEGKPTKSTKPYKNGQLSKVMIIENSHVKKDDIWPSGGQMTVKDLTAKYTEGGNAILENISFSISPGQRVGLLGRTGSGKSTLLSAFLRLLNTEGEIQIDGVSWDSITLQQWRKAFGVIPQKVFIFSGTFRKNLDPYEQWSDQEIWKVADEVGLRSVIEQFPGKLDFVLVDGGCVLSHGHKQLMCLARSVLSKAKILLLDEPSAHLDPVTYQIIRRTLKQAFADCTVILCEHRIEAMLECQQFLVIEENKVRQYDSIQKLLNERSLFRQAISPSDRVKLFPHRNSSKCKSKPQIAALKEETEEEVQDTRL
UniProt Q07812: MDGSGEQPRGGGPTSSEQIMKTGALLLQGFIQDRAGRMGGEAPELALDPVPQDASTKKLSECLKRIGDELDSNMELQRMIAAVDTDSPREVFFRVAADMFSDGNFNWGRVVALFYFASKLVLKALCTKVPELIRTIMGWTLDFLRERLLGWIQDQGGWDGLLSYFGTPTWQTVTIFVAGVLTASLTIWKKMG

binding: no binding
Substance: Bcl2 associated protein-X (from UniProt Q07812 1-192)
